Laboratory results published in PMC11642917.

By UniProt entry, the sequences of proteins in these tests, tags left out.
UniProt Q17551: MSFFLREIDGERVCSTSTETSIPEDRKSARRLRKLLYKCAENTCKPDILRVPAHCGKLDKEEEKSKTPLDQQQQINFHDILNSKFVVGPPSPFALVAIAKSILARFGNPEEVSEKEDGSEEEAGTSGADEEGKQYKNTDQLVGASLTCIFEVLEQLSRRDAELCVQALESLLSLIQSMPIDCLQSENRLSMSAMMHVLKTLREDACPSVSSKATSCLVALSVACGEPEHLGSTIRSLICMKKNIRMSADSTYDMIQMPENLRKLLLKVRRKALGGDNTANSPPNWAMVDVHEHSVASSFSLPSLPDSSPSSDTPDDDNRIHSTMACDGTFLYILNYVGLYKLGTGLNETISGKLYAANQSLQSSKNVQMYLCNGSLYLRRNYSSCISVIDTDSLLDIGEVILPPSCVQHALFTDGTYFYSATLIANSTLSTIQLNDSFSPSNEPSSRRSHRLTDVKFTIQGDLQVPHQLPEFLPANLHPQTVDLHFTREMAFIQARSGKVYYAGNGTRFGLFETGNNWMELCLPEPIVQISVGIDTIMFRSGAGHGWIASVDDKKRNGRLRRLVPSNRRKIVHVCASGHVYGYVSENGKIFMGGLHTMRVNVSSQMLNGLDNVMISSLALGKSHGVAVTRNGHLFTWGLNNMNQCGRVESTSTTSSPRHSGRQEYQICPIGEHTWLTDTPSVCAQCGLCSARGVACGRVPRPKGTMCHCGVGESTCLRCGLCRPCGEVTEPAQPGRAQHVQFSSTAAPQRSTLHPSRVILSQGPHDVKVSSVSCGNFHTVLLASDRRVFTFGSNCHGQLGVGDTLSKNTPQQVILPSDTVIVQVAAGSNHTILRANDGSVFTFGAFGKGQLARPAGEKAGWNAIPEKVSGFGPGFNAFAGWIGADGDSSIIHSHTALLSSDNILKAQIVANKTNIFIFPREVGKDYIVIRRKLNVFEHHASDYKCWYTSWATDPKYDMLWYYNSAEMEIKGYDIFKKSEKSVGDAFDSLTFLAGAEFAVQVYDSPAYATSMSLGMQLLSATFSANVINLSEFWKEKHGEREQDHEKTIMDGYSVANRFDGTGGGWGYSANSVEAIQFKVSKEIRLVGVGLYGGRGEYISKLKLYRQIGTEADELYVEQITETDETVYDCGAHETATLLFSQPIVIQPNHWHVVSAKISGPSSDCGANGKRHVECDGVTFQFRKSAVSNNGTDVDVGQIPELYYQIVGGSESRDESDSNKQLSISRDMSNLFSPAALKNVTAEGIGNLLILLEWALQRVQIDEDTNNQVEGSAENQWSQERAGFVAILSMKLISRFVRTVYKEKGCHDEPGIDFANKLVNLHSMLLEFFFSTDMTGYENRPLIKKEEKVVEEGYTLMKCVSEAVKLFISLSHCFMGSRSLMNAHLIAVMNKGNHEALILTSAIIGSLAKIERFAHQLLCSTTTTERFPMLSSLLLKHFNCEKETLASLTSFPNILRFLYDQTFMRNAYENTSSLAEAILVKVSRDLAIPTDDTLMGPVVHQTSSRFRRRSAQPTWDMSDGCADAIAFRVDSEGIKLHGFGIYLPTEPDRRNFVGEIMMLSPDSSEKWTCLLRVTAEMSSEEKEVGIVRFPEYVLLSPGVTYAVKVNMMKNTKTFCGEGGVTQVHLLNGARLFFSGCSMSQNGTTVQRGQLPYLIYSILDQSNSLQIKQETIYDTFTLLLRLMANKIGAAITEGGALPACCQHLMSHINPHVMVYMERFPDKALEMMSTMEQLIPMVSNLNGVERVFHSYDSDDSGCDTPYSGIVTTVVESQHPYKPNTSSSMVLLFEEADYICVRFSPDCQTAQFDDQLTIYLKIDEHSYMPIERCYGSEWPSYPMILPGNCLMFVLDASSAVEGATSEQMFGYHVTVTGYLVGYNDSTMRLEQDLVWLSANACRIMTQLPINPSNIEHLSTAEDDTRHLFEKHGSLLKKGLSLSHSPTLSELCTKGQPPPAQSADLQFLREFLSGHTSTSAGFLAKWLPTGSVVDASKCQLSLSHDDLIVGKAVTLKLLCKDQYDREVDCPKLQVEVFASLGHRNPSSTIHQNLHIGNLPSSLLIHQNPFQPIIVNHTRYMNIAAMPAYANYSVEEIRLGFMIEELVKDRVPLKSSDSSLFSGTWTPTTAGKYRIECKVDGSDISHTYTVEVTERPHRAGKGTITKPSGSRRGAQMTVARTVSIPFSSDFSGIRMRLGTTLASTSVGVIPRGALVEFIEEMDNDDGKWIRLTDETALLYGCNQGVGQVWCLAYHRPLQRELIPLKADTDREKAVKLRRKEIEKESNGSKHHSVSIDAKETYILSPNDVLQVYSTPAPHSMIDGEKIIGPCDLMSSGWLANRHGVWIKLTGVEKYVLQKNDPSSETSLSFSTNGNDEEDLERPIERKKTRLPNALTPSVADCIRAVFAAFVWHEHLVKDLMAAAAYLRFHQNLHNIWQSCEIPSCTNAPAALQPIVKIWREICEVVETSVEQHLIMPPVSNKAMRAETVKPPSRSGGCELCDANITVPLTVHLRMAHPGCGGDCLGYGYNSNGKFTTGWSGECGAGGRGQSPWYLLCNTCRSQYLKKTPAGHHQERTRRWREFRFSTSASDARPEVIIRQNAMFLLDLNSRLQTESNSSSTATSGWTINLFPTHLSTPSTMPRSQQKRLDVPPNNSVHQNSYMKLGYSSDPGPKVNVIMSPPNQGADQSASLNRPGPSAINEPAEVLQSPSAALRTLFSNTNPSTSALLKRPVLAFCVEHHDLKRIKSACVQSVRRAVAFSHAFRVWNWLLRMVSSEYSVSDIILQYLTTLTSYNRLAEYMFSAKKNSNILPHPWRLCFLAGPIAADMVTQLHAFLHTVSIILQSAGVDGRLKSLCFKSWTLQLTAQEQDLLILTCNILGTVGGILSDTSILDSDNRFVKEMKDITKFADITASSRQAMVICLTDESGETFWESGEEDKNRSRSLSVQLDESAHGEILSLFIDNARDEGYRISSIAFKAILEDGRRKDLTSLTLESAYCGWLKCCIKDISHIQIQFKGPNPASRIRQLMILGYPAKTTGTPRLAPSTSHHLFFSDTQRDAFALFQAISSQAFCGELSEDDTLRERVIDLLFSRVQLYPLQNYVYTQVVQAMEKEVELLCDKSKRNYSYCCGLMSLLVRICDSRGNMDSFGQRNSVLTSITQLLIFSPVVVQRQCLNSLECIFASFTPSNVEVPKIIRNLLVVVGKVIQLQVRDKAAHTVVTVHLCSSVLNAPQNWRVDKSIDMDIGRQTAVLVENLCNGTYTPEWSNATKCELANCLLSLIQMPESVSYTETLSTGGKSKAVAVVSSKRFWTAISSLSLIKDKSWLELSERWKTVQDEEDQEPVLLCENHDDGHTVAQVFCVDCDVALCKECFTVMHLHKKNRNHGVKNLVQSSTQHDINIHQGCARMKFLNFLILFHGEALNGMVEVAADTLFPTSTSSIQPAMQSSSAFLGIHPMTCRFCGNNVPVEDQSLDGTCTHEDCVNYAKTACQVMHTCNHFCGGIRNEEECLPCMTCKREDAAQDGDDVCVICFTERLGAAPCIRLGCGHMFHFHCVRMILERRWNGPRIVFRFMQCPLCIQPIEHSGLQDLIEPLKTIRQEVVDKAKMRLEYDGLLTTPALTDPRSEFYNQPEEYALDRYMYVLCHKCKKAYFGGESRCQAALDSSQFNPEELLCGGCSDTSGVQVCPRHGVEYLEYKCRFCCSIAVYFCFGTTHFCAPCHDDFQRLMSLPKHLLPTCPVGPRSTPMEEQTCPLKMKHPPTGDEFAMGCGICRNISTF

B1: RAE-1 (protein, UniProt Q93454 1-373)
chain: MFGSSGFGNKSMFGGSNISTSTTTPAANTTQNDDFLVDGAPEDTIQVIKFSPTPQDKPMLACGSWDGTIRVWMFNDANTFEGKAQQNIPAPILDIAWIEDSSKIFIACADKEARLWDLASNQVAVVGTHDGPVKTCHWINGNNYQCLMTGSFDKTLRFWDMKNLPNQTQMAQIQLPERVYAADVLYPMAVVALANKHIKVYNLENGPTEVKDIESQLKFQIRCISIFKDKSNQNPAGFALGSIEGRVAVQYVDVANPKDNFTFKCHRSAELVNGFQEIYAVNDICFHPQHGTLVTIGSDGRYSMWDKDARTKLKTSEPHPMPLTCCDVHSSGAFLVYALGYDWSRGHEGNTQPGSKIVIHKCIEDMKPRPTKK
B2: UNC-112 (protein, UniProt Q18685 1-720)
chain: MAHLVEGTSIIDGKWQLPILVTDLNIQRSISVLGNLNVGGLMLELVSECDVERDWSDHALWWPEKRRWLQHTRSTLDQNGITAETQLEFTPMHKEARIQLPDMQMIDARVDFSVNSFKATKKLCRDLGIRYSEELSLKRYIPPEDLRRGTSDADNMNGPLSMRPGEESVGPMTLRKAAPIFASQSNLDMRRRGQSPALSQSGHIFNAHEMGTLPRHGTLPRGVSPSPGAYNDTMRRTPIMPSISFSEGLENEQFDDALIHSPRLAPSRDTPVFRPQNYVEKAAINRGWLDSSRSLMEQGIFEGDIILLRFKFMNFFDLNPKYDPVRINQLYEQAKWSILLDEFDHTEEEATLFAALQLQATLQRDSPEPEENNKDDVDILLDELEQNLDAAALNRRSDLTQVPELADYLKYMKPKKLAAFKGFKRAFFSFRDLYLSYHQSSSDVNSAPLGHFSLKGCEVSQDVSVGQQKYHIKLLLPTAEGMIDFILKCDSEHQYARWMAACRLASRGKSMADSSYQQEVESIKNLLKMQSGNGNENGNSNTASRKAAAVKLPNDFNVDEYISSKYVRRARSKQQIQQRVSDAHGNVRQLTATEAKLQYIRAWQALPEHGIHYFIVRFRNARKAELVAVAVNRLAKLNMDNGESLKTWRFANMKKWHVNWEIRHLKIQFEDEDIEFKPLSADCKVVHEFIGGYIFLSMRSKEHSQNLDEELFHKLTGGWA
B3: GLO-4 (protein, UniProt Q5DX34 1-1386)
chain: MFFKRSTNSRKTSANSSSDTSTSSESLLLPLLNNTKAGARSQKGSVHRQSGKKARRKMMENPYVCSLELDELSADDSIIDYSVFSDDSFLLILLLTSKGDVQAYLETSRDTKPRKNVVNIKTACSLNVSPVTVCIGSQAAFAIFGLADGNLLVTPIRLLIDVTWGGSSWATTTVIDLSLPTVDPCLATPTCTKCFVSNFPPCTMAVVANKAGNILLVDLHLRKCVSELKAPQSLHQIDILLDENSIELLVTGFTGAQWIIPIERSGKGFREVLTTCVPSDLTVLEPATMQFFAADSCGVVALDTTESIVEVYNTFHSLAHSSKRTFKVPPETWMVHAGDNMLFTVSNDNEIRSALHFGFMSSRLEYTLVRTSTNWRPLGIVAMPSRPHKLAGIFVVNERGLVRVEQSTALNLTKIASEFFFRLSPLQLNSKSVAQVANACRIDTAEFQSALIPNLLSTRKNRQLTNKELSQIYSIAKAINLSMSDLLKAFENESIGEQLLPEVLNTIQTNPAKHDNLMQRVVEMFVKRSLSAEGNMDKIREYDAELSNFLARHEHLHKGSVDCAKAGMWKCTQTLVRRDVHETKSIDTSTEVLLYIIKNRLQIWNEANSTDRLQIMSLVCHLDWSKLADADGARVCAILSAWQRDISLPSYHEMCLRIAITNSDRFPRPCQILSLVSSIHILSEKKISNHANLPNFLPLAGGNNCGATITEDDRLMIWGNFTNAQQRMEMPQMNAKSKRSDSVTNGAPTLPPPAPKPEQHLPRVLEYPGGRPRAIACGAEHILVLSSSGQLSAWGGNRFGQCGVGHSFRIANLHQVDGDWPAIEKIACGQFHSAFICSDGSLWTFGWGVWGQLGHGGRNNSNQLVPTRVNGLICKVTQIACGRAHTVVLTDTGRVLVCGSGSYGQMGVDDDIKKVFAFTPLPLGPLRVRDIATHYYHSICITEDNRVFEWGRNPQELKMRMFVMKKIRSAQLKNTEDPSSPSPSTNGSTPRVNLNLPAEIPREDLGLREVKHFLDGNIVSVACGLSHSALITSEGTLYTWGKGLDYQLGHGNKNERMEPHQVFEPNGAKWVNVSLGNNHTIASTDDGSVFAWGKNDFGQCGVLTKKNGNSADVTKKFFFQARDGRRFMPNVDESQFVQKPGLIPDVRVRNLNEDGNEGVDKEEIVDRLKASDVNVVQAVSKHLYSPIEGKCNGSIIEDEPRNGKIQKQNKYDGEDGPLCTTTALVHLIAGDVKRAIRMIEWLKTDSSTCEKSLMVLSSLVWEVMANHEDVQSREALSAAFRHVPMSDSMRKGKQIAQLWPAVWNDERVQSSLSIDEKIAMLDGFTSASKPVSCPTIPSSSLEVSSKIRVYAQCAHAEPAAVGSPPECSTCLDEWTEKVRHTLGTQL
B4: ABL-1 (protein, UniProt P03949 1-1224)
chain: MGHSHSTGKEINDNELFTCEDPVFDQPVASPKSEISSKLAEEIERSKSPLILEVSPRTPDSVQMFRPTFDTFRPPNSDSSTFRGSQSREDLVACSSMNSVNNVHDMNTVSSSSSSSAPLFVALYDFHGVGEEQLSLRKGDQVRILGYNKNNEWCEARLYSTRKNDASNQRRLGEIGWVPSNFIAPYNSLDKYTWYHGKISRSDSEAILGSGITGSFLVRESETSIGQYTISVRHDGRVFHYRINVDNTEKMFITQEVKFRTLGELVHHHSVHADGLICLLMYPASKKDKGRGLFSLSPNAPDEWELDRSEIIMHNKLGGGQYGDVYEGYWKRHDCTIAVKALKEDAMPLHEFLAEAAIMKDLHHKNLVRLLGVCTHEAPFYIITEFMCNGNLLEYLRRTDKSLLPPIILVQMASQIASGMSYLEARHFIHRDLAARNCLVSEHNIVKIADFGLARFMKEDTYTAHAGAKFPIKWTAPEGLAFNTFSSKSDVWAFGVLLWEIATYGMAPYPGVELSNVYGLLENGFRMDGPQGCPPSVYRLMLQCWNWSPSDRPRFRDIHFNLENLISSNSLNDEVQKQLKKNNDKKLESDKRRSNVRERSDSKSRHSSHHDRDRDRESLHSRNSNPEIPNRSFIRTDDSVSFFNPSTTSKVTSFRAQGPPFPPPPQQNTKPKLLKSVLNSNARHASEEFERNEQDDVVPLAEKNVRKAVTRLGGTMPKGQRIDAYLDSMRRVDSWKESTDADNEGAGSSSLSRTVSNDSLDTLPLPDSMNSSTYVKMHPASGENVFLRQIRSKLKKRSETPELDHIDSDTADETTKSEKSPFGSLNKSSIKYPIKNAPEFSENHSRVSPVPVPPSRNASVSVRPDSKAEDSSDETTKDVGMWGPKHAVTRKIEIVKNDSYPNVEGELKAKIRNLRHVPKEESNTSSQEDLPLDATDNTNDSIIVIPRDEKAKVRQLVTQKVSPLQHHRPFSLQCPNNSTSSAISHSEHADSSETSSLSGVYEERMKPELPRKRSNGDTKVVPVTWIINGEKEPNGMARTKSLRDITSKFEQLGTASTIESKIEEAVPYREHALEKKGTSKRFSMLEGSNELKHVVPPRKNRNQDESGSIDEEPVSKDMIVSLLKVIQKEFVNLFNLASSEITDEKLQQFVIMADNVQKLHSTCSVYAEQISPHSKFRFKELLSQLEIYNRQIKFSHNPRAKPVDDKLKMAFQDCFDQIMRLVDR
B5: COR-1 (protein, UniProt Q21624 1-607)
chain: MAQIVRQSKFRHVFCKPVKHESCMSDIRVTEITWDSLFCDVNPKFIAFINRGAGGPFMVIPVNKIGRVDKDYPFVDAHKAPCLEVAWSPFNDNVIASCSEDTTCKVWVIPDRGLNRNLSEPAVELTGHQKRVNTIAWHPVANNVLLTAGGENVMFMWNVGTGEALLEISGHPDQIWSINFNFDGSQFVTTCKDKKIRILDSHTGEVVHEGMGHEGVKPQRAIFVKDGLILSTGFTKRSERLYALRAPEDLSTPIVEEELDTSNGVVFPFYDEDSGLVYLVGKGDCAIRYYEVNNDAPYVHYINTYTTNEPQRAVGFQSKRGMSSEENEINRIYKLTTKGVVDILQFFVPRKSDLFQHDLYPDTRSTIPALTAEEFMEGKNAAPNRQPVNAAAAAAAAKPKVQVAKKANILSTLAPTAAESVPTQSYSERPPSSQQPSPRPSASPRPRPVVDDDMGIVTMREAPPSRPASSRASRTEIPPKEESKVDPMKPKQAVQLKSRAARDEPGGGAQTAGQRRAAAELERIKRDQSRTADEDNTLAPPPSSSRASASPRGSVSAASDVGHVPQNMDELLEDLMKMKAVLRQHERRIRMLEEEIADRNMSNAYSF
B6: FSN-1 (protein, UniProt Q18223 1-332)
chain: MAENDGETIVPDEQCNLTASTPMKSSGLEQVESPKERKTSMVECDDEGNPSSGTPDESPKQLTPHSIPPRRRRSPRRPEVSASRLPLKVLNQIFQYLPLKDLRSAMLTCHSWNNALSMEDSDIWQYLLGKKLPEAAVSDPFLLAELGSAKKKLRAWYFAWNTSDISRNNYIRTNGFTVHRQPVAQSTDGVRGKRGISKGVHAFDITWDGPLGTVAVVGIATKHAALHCVGYVALLGSDDQSWGWNLVDNVLMHNGAQLGVYPKMNNPPKYEVGDKIRLIIDCDTHVAYFERNSEFLGIAFNHIPPLRLYPAVCAVYGNTEVTMVYVGSPQMG
B7: UNC-51 (protein, UniProt Q23023 1-856)
chain: MEQFDGFEYSKRDLLGHGAFAIVYRGRYVDRTDVPVAIKAIAKKNISKSKNLLTKEIKILKELSSLKHENLVGLLKCTETPTHVYLVMEFCNGGDLADYLQQKTTLNEDTIQHFVVQIAHALEAINKKGIVHRDLKPQNILLCNNSRTQNPHFTDIVIKLADFGFARFLNDGVMAATLCGSPMYMAPEVIMSMQYDAKADLWSIGTILFQCLTGKAPFVAQTPPQLKAYYEKTRELRPNIPEWCSPNLRDLLLRLLKRNAKDRISFEDFFNHPFLTSPLLPSPSKRILESARSPLLANRRIITPQSSLPVPKRAGSTKLDSPTPVRRIGESPRVQRRVITPGMPSPVPGAPMQESTDFTFLPPRQESSPVKQVQVHTNVSPSLTTCKPVPVPSQRLTYQKMEERLAAARKTAVPSSSSPTGSAVSAQHQHQHQQQQEPASSPVVQRIERPDQLPRRTTLQDPNAHDIERMTMPNPTFVVCGSSTKPSPNNANRVRRSTITSPADTQDMVAADQMLSNLDPTTTTTTIPKSATTANIQGIPRGARDRSVTSPPQPTIHENEPLDNAKYQQTDVNNSPTAPTEPFIIKNQTTCSTSSTSSSVVEEEEAMSLPFASGSHLAAGFKKTPAEVPMDHGALPPALDQEIVLGEEHKQILAKLRFVAELVDTLIHVAEQKDNPLASAMASRRQLLTTGTSTTNTSSPYRRAEQLVVYVRALHMLSSALLLAQTNVANRVLHPSVAVQQVLNQLNDKYHQCLVRSQELASLGLPGQDPAMAVISAERIMYRHAIELCQAAALDELFGNPQLCSQRYQTAYMMLHTLAEQVNCDQDKTVLTRYKVAVEKRLRILERQGFVAAVNT

Columns and labels:
GS::RPM-1 (C. elegans) = GS::RPM-1 (C. elegans) (UniProt Q17551); assay: affinity purification with mass spectrometry; GS-tagged RPM-1 bait captured on IgG-coupled Dynabeads from whole-animal lysates of mixed-stage C. elegans (80 mg total protein, 500 uL beads, 4°C, 4 hours; various detergent conditions); SDS-PAGE, in-gel trypsin digest, LC-MS/MS; GS::GFP negative control; 7 independent experiments; hit = 1.5x or greater total spectra over GS::GFP
[1] = target: GS::RPM-1 ligase-dead (LD) (C. elegans) (UniProt Q17551); assay: as above

Binder	binding (GS::RPM-1 (C. elegans))	binding [1]
B1	binds	binds
B2	binds	binds
B3	binds	binds
B4		binds
B5		binds
B6	binds	binds
B7		binds

These are yes or no findings as the source states them, for the method shown. Binding seen in cells or lysates may run through a third protein. Here binding means that the protein was enriched with, or labelled near, the bait; the list need not be complete.
